Reference: PubChem BioAssay AID324 (DTP/NCI, 2004)
The list shows only some results of the screen, not a fair sample: its compounds were picked by chemical class. Other doses and runs of a compound may be missing. T/C: endpoint of the treated group in % of that of the vehicle group. Where survival is the endpoint, this PubChem deposit counts one and a half times the control or more as active, and values a quarter to a half above the control carry no call in these data; other NCI protocols may use other cut-offs. Schedules are NCI's codes, taken here to give the interval after Q, in days (D) or hours (H), and the number of doses after X. Some entries show no survivor count and are marked so; the dose need not have been tolerated.

Test system: CD2F1 mice, AMSA-resistant P388 leukemia ip, median survival T/C
Assay: NCI In Vivo Anticancer Drug Screen. Data for tumor model P388 Leukemia resistant to AMSA; NSC 249992 (intraperitoneal) in CD2F1 (CDF1) mice
Conditions: T/C endpoint: median survival time, schedule: Q04DX003 (ip), vehicle: saline, higher T/C = longer survival
Experimental: The antitumor activity of compounds was measured in mice bearing transplantable tumors. Survival or tumor size were measured and the results are expressed as the measurement made in the treated group (T) divided by the measurement made in the vehicle treated control group (C). The tumor model used in this assay is P388 Leukemia resistant to AMSA; NSC 249992 (intraperitoneal) in CD2F1 (CDF1) mice

With CC(=O)OCC12CCC(C)=CC1OC1C(O)C(OC(C)=O)C2(C)C12CO2 (stereo not drawn) the T/C (dose: 2.59 mg/kg/injection) was 150 % of control [survivor count not shown], the T/C (dose: 4.32 mg/kg/injection) was 155 % of control [survivor count not shown] and the T/C (dose: 7.2 mg/kg/injection) was 156 % of control [survivor count not shown].
